Data taken from article PMC3538741.
No constants are given. Whether binding was seen depends on the method and setting. Binding seen in cells or lysates may run through a third protein. Some results given as binding are weak or reduced against the parent protein; the word gives no strength.

Amino acid sequences for entries named in this document (tags omitted). A change or cut given only in a name is not applied to a line headed by its entry. Residues count along the entry.
UniProt Q8N726: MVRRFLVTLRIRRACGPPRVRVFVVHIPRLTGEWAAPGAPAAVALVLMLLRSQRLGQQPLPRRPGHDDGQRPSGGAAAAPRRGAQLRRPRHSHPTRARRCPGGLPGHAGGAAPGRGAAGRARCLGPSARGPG
UniProt Q07021, residues 74-282: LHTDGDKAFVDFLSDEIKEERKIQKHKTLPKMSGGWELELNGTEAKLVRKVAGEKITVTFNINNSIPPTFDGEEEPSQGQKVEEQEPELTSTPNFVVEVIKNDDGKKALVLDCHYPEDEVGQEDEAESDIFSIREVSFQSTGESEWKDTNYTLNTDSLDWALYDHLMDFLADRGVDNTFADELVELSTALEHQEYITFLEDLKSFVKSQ

Experiments:
Test in all cases: co-IP; 1 mg total extract of U2OS cells 24 h after transfection with X-press tagged ARF (wt or mutant) and MDM2 or myc tagged p32; IP with anti X-press antibody (legend of Fig. 3b: anti ARF), blot with anti MDM2, anti myc and anti ARF antibodies
[1] = biological target: X-press tagged p14ARF T8D mutant (human) (UniProt Q8N726)
[2] = biological target: X-press tagged wild type p14ARF (human) (UniProt Q8N726)
[3] = biological target: X-press tagged p14ARF T8A mutant (human) (UniProt Q8N726)

Measured: binding

myc tagged p32 (from UniProt Q07021 74-282)
binds: [1] | [2] | [3]
